Results from PubChem BioAssay AID1508600 (Functional Genomics Laboratory (NCATS/FGL), 2020).
Screen size: about 53,000 sequences; about 3,700 (7%) were called active.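 How the source made its calls: active means gene knockdowns whose robust z-score for IL-1 alpha signal is at least 2 or at most -2, so actives lie on both sides; inactive means the rest.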 The list shows a part of the results.

Experiment: Components of the Cytosolic LPS Sensing Pathway: Gene Identification via Genome-wide siRNA Screen;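 further: robust z of the log signal after scaling to non-targeting control siRNA wells of the plate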
Conditions: RAW264.7 macrophages, IL-1a HTRF, actives lie on both sides, screened at 100 nM (by protocol), cells primed 5 h with Pam3CSK4 first
Summary of the method: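 Supernatant IL-1a by HTRF from RAW264.7 cells primed with Pam3CSK4 (5 hours) and transfected with LipidA (24 hour) after 48h siRNA knockdown at 100 nM; cell viability checked with CellTiter-Glo.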

Sequence	z-score
CCCACCGCCAUGACAUUAUTT against Klk15	inactive: -0.776
CCUGUAGUUUGUUGAAUCUTT against 2410018L13Rik	inactive: 1.4
GGCAAGAAAUUCUUCAGCATT against St8sia3	inactive: -1.38
CGACCAUCUUUACUUUAUCTT against Cilk1	inactive: 1.61
GGUCUUUGAGACAGAUAUUTT against Colec12	inactive: 0.0435
GGAUUUUCUGAAGCAAUGCTT against Olah	inactive: -0.127
GGGAUUCUGUCUGCACUGUTT against Olfr1145	active: -2.51
GCUGGGUGUAAUGUUUCCUTT against Tbcel	inactive: 0.789
GGGUCUGGAAUCCAUCCGUTT against Lin28a	inactive: -1.25
GGAGAGUACUUCCAGUAAGTT against Glycam1	inactive: -0.329
GGAAGAAUUUUCGCCAACATT against Iqcb1	inactive: -0.214
GGAGAUACAUUGGUAGGUATT against Idua	inactive: -0.469
GGAUCAAUCAUGCAUCCAUTT against Lipc	inactive: 1.95
GCUAGAAAUAGCCUUAGGUTT against Nceh1	inactive: 0.598
GGAUAUGUGUUCAUCCUGUTT against Lrrc18	inactive: 0.0347
GGUGUUGAGUGCACUACUGTT against Nckap5l	active: -2.2
GCCAAUAUAGGUUUUAGGUTT against Serpinb6b	inactive: 1.04
GGCGUACAGUAUUUCCUACTT against Il17d	inactive: 0.79
GGAACACAAAGGUAAGAAATT against Raf1	inactive: 0.0798
GGACAAAAAUGCAAGAAGATT against Klhl31	inactive: -0.473
CCAUCUAAAGGCAUGCAAGTT against Cmah	inactive: -0.833
GCACAAAUUUGAAGAUCUATT against Ptprb	inactive: 1.62

Sequence	z-score
CCUCUGUAAGAUAAUGUUUTT against Ctsm	inactive: 0.274
GGGAAUCCGUCCCAAGAAGTT against Rrs1	inactive: 0.243
GGUUUUUGACUUGAGUCAUTT against Olfr689	inactive: -1.69
CGGUUUCUAAAAGAAUUGGTT against Syt16	inactive: -0.181
GGACGAUGUCUUAUAGAAGTT against Pih1d2	inactive: 1.16
GCAUUGGAGCUAAAUCUGGTT against Tcap	inactive: 0.395
GGACAAUUGAAAACUGCCUTT against Gpd1	active: 2.95
GGAAGAUUACCAACUUUGATT against Ric3	inactive: 0.765
GGCAUUCAGUAAGUUGUUATT against Pced1a	inactive: 0.11
GGUGGUGAUUCACCUCCAATT against Tnfrsf12a	active: -2.23
GCAUGGGAGCAGUGUGAACTT against Tubb4b	inactive: 0.206
GCAUCGAAUGUUUGAACCCTT against Gstm6	inactive: 0.782
GGAAAUGAUCUCUUUUGGATT against Bbs2	inactive: -0.734
CCCAAAAAGUUUUGCUAACTT against Ing2	inactive: 0.753
CCUACAUUCACCAAAAGGUTT against Usp9y	inactive: -0.211
GGGAAUGCACUACAACUACTT against Chpf	inactive: 1.16
CCAAGAAUGCCCAGCAAGUTT against E4f1	active: 2.39
GGUGUCUCUGAUGAAUCACTT against Syt15	inactive: 1.21
GCGAGUGUAUGCUUGAGAATT against Hspa12b	inactive: 1.01
CCGGAAUCAAAACCUCUAGTT against Acsf3	inactive: -1.18
GGCUACCAAGUGUACCAUUTT against Syt15	inactive: 1.16
GGCGACCUCUAGGUGUCUUTT against Bptf	inactive: -0.879

Sequence	z-score
GGAAAACAGGCAGGACUUCTT against D930020B18Rik	inactive: -0.534
GGAUUCGUAAACUUCAGAUTT against Igf2bp3	active: 3.41
CCUUAAUCGCAUCAAAUUATT against Slc1a3	active: 2.35
GGGCUCAAGGUUAUUAAUGTT against Gjb1	inactive: 0.339
GCGCGAUUCAGAGGUUUCATT against Raver2	inactive: 0.238
GCCGACCAGUUCCUAGUGATT against Nol11	inactive: 0.969
GGAGACACUGAACAUCUUATT against Kctd13	inactive: -0.669
GGAACAUGAAAACACGAAUTT against Mier1	inactive: 0.22
GGAAAGCCAGAAAAUUCACTT against Gimap6	inactive: 1.09
GGCUUAGGUGUCCGAGAAATT against Wfdc2	inactive: -1.01
GCUUCAGUAUAACCUAGAATT against Catsper2	inactive: 0.554
GGCCAGGACACUCAAAAACTT against Serpina3b	inactive: 0.13
CCAGCAUGCAUCCAUUCUUTT against Mageb3	inactive: 0.638
GGCUUUAUAUCAAGAUUUGTT against Lrrc2	inactive: 1.7
GGAGAGGAGUUGGAUAGAUTT against Mobp	inactive: -1.48
CCCUUACAUCACACAGGACTT against Plppr3	inactive: -0.645
CCAGAUUAUCCGUUUAAACTT against Ube2e2	inactive: 0.242
CCAGGUCUAAAAGUAACAATT against Unc13b	inactive: 0.709
GGAAGAAACCUACGUUGAATT against Mterf2	inactive: -0.666
GGAACCUAAUUGAAUGGCUTT against Cmbl	inactive: 0.985
GGGAUGAAAAAAUUGGAUATT against Chd1	inactive: -1.36
GGGAGUUCUGCUUUAUUGCTT against Bst2	inactive: 0.87

Sequence	z-score
GGACCUGGUAUCUCUAUAUTT against Rasgrp4	inactive: -0.807
GGCACACCUAGACACAGAATT against Txnl4a	inactive: -0.228
GGCUUCAGCUAACCAAGCUTT against Adat1	inactive: -0.638
GGGACUUCAAAGCAGGUAGTT against Alx3	inactive: -1.82
CGUGAACCGCCAGAAUGCUTT against Cdh5	inactive: -0.403
GGUAUUCAGGAAGUCACCATT against Krt4	inactive: -0.637
CCUCCUGACUUGGAUAGAGTT against Agt	inactive: 0.521
GCACAUCAUUUAUCAGACATT against Ramp3	inactive: -0.312
GGUGUGCUUAUUCAUGAGUTT against Prr18	inactive: -0.0356
GGUUUUCACCCUGAAUGUGTT against Siglece	inactive: 0.134
CCCUAAUAGAACUAAUGAATT against Kpnb1	inactive: -0.904
GGCUGUUUGUUGUGUUUAATT against Rbm45	inactive: 1.61
CCAGUUGAAUUAGAAUCCATT against Ctns	inactive: -1.08
CCUUCUCAUCGGUCAUUCUTT against Prss48	inactive: 0.348
GGACCAUAUGAACUUUAUUTT against Xpo7	inactive: -0.399
GGGAAGAUCUUCAAGAAGGTT against Pa2g4	inactive: -0.089
GGAGAAAUCAUCACAGUUATT against Snx9	inactive: 2
GGCAGGCCUCAGUUGAGAUTT against Pycrl	inactive: 0.297
GGAAAUUCCAUGUAUGACUTT against Tm7sf2	inactive: -0.736
CGAAAAUCGAGAAUUCUUCTT against Nlrp9b	inactive: 0.0767
GGAUGGACAUUUUGUCUUCTT against Mmp15	inactive: 0.335
GGCAAUCUGCACUUUAUACTT against Pank2	inactive: -0.987

An excerpt of these results, as a markdown table:

| Sequence | z-score |
| --- | --- |
| GGCAAGAAAUUCUUCAGCATT against St8sia3 | inactive: -1.38 |
| GGAGAGUACUUCCAGUAAGTT against Glycam1 | inactive: -0.329 |
| GCACAAAUUUGAAGAUCUATT against Ptprb | inactive: 1.62 |
| GGCUGUUUGUUGUGUUUAATT against Rbm45 | inactive: 1.61 |

The listing continues.

Sequence	z-score
GGAAAUACAGCUCUUGCUCTT against Ccny	inactive: -0.319
CCCACAUAAGCGAAUCUCUTT against Cdk4	inactive: 0.522
GCAGAUCCAAUCAAAUCUCTT against Ly86	inactive: 0.982
CGACAUUGUGAUUAUCCAGTT against Elane	inactive: -0.274
GGAACAUGGACACCACACUTT against Thap3	inactive: 0.879
CCACUAGGAGUUUACUCCGTT against Efcab5	inactive: -1.3
GCUGUUGUAACCAUAACAGTT against Ntsr1	inactive: 0.439
GGAGAUCAAGAACUACGUCTT against Mrpl12	inactive: 0.639
GGGACCACAGCACUGGUUUTT against Cox6a1	inactive: 0.186
GCUACCUACUCAACAUUGCTT against Trim32	inactive: 0.524
GGAGAGAAUAUCACAAUUGTT against Tas2r102	inactive: 0.00892
GGUAUUUUGGUGGACGGGUTT against Rbm17	inactive: 0.148
CGACCAGCUUCUAGUGCUUTT against Pcdha8	inactive: -0.431
GGAACAGAUGGGUGUGAAATT against Wnt2b	inactive: -0.0195
GCUGUCAUGGGAAAAAUUGTT against Olfr729	inactive: -0.541
GGAAGCCAAAGGUCUCAACTT against Crct1	inactive: 1.05
GGUUGUACGAUUAUAAAGGTT against Arih2	inactive: 0.36
GGUGUACGAUGCAGUACCCTT against Slamf8	inactive: -0.144
GGUAAUGGCUCACUUAAUATT against Malt1	inactive: -0.427
